# Assay results published in paper PMC4102245, “A molecular model for the role of SYCP3 in meiotic chromosome organisation” (eLife, 2014).
# No constants are given. Whether binding was seen depends on the method and setting. Some results given as binding are weak or reduced against the parent protein; the word gives no strength.
# B1: SYCP3_(Core) (human SYCP3 amino acids 66–230) (domain or fragment, UniProt Q8IZU3 66-230, looked up)
# chain: MGGEVQNMLEGVGVDINKALLAKRKRLEMYTKASLKTSNQKIEHVWKTQQDQRQKLNQEYSQQFLTLFQQWDLDMQKAEEQEEKILNMFRQQQKILQQSRIVQSQRLKTIKQLYEQFIKSMEELEKNHDNLLTGAQNEFKKEMAMLQKKIMMETQQQEIASVRKS
# notes: Synaptonemal complex protein 3 (SYCP3), human, Swissprot Q8IZU3, amino acids 66-230; Cloned in pHAT4 with an N-terminal TEV-cleavable His6 tag; homotetramer by SEC-MALS, AUC and crystal structure; also called SYCP_(Core); not shown: His6, N-terminal, cleaved
# Biological target: SYCP3_(Core) (human SYCP3 amino acids 66–230) (human) (UniProt Q8IZU3)
# Experiment: crystal structure; hanging drop, 100 mM Hepes pH 7.5, 100 mM NaCl, 13.0% PEG3350, 18°C; iodide SAD at 2.41 Å and native at 2.24 Å; two tetramers in the asymmetric unit; both purified
binder,measurement,value
B1,binding,binds
